These are yes or no findings as the source states them, for the method shown. In cells and extracts the contact can be indirect. Some results given as binding are weak or reduced against the parent protein; the word gives no strength. Sequences can lack the tags named with a protein. Each block holds one binder with its values, some of them ahead of it.
How the values were obtained:
[1] = target: T1, GST-AFF1 (AUXIN RESPONSE FACTOR F-BOX1, At3g49150) (Arabidopsis thaliana) (UniProt Q9M3B7); experiment: pull-down; 2 μg purified GST fusion immobilised on glutathione agarose, mixed with 1-2 mg total protein of arf19-1 35S:YFP-ARF19 plant lysate, 4 °C, 2 hr; six washes (PBS pH 7.4, 150 mM NaCl, 0.2% Triton X-100); immunoblot with anti-GFP and anti-GST; only the target purified
T1 sequence: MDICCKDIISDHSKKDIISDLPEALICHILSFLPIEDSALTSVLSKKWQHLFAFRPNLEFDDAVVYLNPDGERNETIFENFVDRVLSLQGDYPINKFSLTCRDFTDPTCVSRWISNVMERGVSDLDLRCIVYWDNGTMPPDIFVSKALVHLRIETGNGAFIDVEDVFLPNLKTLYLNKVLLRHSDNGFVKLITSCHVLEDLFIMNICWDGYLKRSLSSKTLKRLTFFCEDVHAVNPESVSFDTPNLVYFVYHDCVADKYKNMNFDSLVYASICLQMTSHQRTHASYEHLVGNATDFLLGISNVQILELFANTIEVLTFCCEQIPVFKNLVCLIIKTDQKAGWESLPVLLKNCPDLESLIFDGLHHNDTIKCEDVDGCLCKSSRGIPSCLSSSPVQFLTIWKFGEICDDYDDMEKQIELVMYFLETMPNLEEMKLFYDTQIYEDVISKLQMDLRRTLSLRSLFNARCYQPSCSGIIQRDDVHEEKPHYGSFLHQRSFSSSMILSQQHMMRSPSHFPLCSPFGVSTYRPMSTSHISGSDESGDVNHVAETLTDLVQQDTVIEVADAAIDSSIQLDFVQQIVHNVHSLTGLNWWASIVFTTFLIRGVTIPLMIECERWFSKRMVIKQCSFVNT

Amino acid sequences for entries named in this document (tags omitted).
UniProt Q38825: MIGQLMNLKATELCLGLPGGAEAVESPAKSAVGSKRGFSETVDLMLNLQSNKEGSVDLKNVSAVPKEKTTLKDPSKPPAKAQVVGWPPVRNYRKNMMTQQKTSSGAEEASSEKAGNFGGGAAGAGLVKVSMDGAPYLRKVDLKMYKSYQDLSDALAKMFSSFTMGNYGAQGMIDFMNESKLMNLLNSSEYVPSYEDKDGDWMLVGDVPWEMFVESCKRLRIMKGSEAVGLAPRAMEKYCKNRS

[2] = target: cEYFP-IAA7 (Arabidopsis thaliana) (UniProt Q38825); experiment: split reporter; BiFC with nEYFP and cEYFP fusions co-infiltrated with the p19 strain into 3-week-old Nicotiana benthamiana leaves, 22 °C, 3 d; confocal microscopy; nuclear marker WPP-mCherry
[3] = target: T2, ARF7-HA (AUXIN RESPONSE FACTOR 7) (Arabidopsis thaliana) (UniProt P93022); experiment: co-IP; plant extract (1.0-2.0 mg protein) incubated with anti-GFP or anti-HA antibody, then Dynabeads Protein G and 2 μg GST, GST-AFF1 or GST-ΔF-box-AFF1 added for 2 hr at 4 °C; six washes; immunoblot with anti-GST; only the binder purified
T2 sequence: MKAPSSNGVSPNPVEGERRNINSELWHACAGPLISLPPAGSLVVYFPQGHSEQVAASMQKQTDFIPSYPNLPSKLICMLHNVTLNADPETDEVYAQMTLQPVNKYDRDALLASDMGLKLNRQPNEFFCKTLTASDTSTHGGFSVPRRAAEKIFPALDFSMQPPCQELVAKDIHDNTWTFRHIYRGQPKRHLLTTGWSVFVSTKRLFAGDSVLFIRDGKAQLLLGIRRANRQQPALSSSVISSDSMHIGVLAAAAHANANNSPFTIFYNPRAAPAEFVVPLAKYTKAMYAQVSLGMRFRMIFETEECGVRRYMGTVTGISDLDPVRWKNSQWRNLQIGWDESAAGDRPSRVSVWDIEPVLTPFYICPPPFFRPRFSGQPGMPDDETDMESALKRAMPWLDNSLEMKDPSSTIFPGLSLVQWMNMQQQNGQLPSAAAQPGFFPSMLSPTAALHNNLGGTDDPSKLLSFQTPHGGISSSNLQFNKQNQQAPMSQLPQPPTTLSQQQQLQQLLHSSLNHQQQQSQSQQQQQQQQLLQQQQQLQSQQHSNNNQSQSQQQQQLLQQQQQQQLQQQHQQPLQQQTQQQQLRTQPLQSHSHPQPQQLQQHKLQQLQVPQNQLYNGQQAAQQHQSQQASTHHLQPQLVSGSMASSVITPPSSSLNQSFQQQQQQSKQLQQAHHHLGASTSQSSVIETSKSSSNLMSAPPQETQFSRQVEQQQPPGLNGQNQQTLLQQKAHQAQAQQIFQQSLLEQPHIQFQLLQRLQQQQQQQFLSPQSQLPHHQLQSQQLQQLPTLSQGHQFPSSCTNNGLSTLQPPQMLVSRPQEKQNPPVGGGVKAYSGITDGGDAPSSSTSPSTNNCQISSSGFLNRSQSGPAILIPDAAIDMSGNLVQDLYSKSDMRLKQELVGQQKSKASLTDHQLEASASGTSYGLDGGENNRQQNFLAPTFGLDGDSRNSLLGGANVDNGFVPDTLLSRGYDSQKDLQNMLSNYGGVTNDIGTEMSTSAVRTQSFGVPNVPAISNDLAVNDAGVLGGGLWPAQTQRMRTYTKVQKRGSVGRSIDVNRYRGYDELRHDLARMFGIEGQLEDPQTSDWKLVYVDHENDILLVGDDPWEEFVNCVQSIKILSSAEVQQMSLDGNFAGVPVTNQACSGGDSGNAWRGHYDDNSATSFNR

[4] = target: T3, YFP-ARF19 (AUXIN RESPONSE FACTOR 19) (Arabidopsis thaliana) (UniProt Q8RYC8); experiment: as above
T3 sequence: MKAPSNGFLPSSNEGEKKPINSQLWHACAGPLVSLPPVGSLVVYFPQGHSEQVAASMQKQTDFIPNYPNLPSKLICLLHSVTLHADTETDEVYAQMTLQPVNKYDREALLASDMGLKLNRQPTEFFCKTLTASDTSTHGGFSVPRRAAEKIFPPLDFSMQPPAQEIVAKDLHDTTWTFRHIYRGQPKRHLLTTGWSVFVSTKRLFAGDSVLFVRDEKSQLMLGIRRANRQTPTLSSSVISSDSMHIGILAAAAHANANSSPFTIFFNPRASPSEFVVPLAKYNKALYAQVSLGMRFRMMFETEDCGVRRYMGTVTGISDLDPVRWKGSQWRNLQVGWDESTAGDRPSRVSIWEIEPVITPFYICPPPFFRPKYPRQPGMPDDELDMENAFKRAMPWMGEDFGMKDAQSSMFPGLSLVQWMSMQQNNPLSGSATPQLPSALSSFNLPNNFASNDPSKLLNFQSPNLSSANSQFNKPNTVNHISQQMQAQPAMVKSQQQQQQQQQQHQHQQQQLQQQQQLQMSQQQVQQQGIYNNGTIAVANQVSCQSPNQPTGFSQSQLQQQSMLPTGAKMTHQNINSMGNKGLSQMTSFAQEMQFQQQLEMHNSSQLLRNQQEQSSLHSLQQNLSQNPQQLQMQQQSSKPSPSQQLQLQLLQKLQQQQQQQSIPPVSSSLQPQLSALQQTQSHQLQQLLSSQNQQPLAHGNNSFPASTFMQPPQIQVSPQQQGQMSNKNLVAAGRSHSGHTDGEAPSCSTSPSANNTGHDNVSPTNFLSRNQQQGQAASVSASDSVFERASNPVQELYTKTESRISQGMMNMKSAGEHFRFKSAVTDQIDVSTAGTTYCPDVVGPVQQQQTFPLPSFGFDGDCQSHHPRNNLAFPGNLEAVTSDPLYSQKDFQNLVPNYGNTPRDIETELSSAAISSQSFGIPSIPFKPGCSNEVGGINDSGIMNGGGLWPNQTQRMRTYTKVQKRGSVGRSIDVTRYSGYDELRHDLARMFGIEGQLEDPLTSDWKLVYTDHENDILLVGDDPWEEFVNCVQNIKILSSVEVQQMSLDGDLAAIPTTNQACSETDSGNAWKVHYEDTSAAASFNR

binding [1]: binds
B1: YFP-ARF19 (AUXIN RESPONSE FACTOR 19) (protein, UniProt Q8RYC8 1-1086)
chain: T3 sequence

binding [2]: binds
B2: ARF19 as BiFC fusions (nEYFP-ARF19 and cEYFP-ARF19) (protein, UniProt Q8RYC8 1-1086)
chain: T3 sequence

binding [3]: binds
binding [4]: binds
B3: GST-AFF1 (AUXIN RESPONSE FACTOR F-BOX1, At3g49150) (protein, UniProt Q9M3B7 1-630)
chain: T1 sequence

Reference: paper PMC9273615, “Regulation of AUXIN RESPONSE FACTOR condensation and nucleo-cytoplasmic partitioning” (Nature Communications, 2022)
